Results as given in PubChem BioAssay AID504834 (National Center for Advancing Translational Sciences (NCATS), 2011).
About 22,000 (6.9%) of roughly 320,000 compounds were called active. The inconclusive results got no clear call from the source; some entries with a clear call stand among them for comparison. Calls follow the shape of the dose curve; as a rule, active = well fitted inhibition curve with a large enough effect; inconclusive = small, poorly fitted or top-dose-only effect, or another doubt; inactive = no such curve, though single readings can be large or run the other way. Where the call is inconclusive, the potency comes from a doubtful curve fit.

test: Primary qHTS for delayed death inhibitors of the malarial parasite plastid, 96 hour incubation; conditions: P. falciparum luciferase reporter growth; series mostly up to 28.7 µM
Outline: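 Readout is luminescence from an integrated firefly luciferase in P. falciparum. Red cells, 2% hematocrit and 0.05% parasitemia final, were cultured with compound through two parasite generations (96 hours) at 37 C, 5% CO2.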
Potency is read from the fitted curve at half-maximal effect.

SMILES | Potency
COCCn1cnc2c1c(=O)n(CC(=O)OCC(=O)NCCCc1ccccc1)c(=O)n2Cc1ccccc1 | inconclusive: 9.28 µM [inhibitor, partial curve, poor fit]
COc1ccccc1C(=O)NCCC(=O)NCCc1ccccc1 | inconclusive: 11.7 µM [inhibitor, single point]
NS(=O)(=O)c1ccc(-c2ccc(C=NC3CCS(=O)(=O)C3)o2)cc1 (stereo not drawn) | inconclusive: 0.0738 µM [inhibitor, full curve, poor fit]
O=C(NC1CC1)C1CC(=O)N(c2cccc(Cl)c2Cl)C1 (stereo not drawn) | inactive
COCCN1CCN(C(=O)c2ccc3nc(Cc4ccccc4F)oc3c2)CC1 | inconclusive: 10.4 µM [inhibitor, single point]
CCCCCn1c(=O)[nH]c2cc(C(=O)N3CCN(c4ccc(C(C)=O)cc4)CC3)ccc2c1=O | active: 11.7 µM
CC(=O)N1CCc2cc(S(=O)(=O)CCC(=O)Nc3ccccc3F)ccc21 | inactive
O=C(Cn1cc(/C=N/NC(=O)c2ccccc2Br)c2ccccc21)Nc1ccc(F)cc1 | inactive
O=C(NCCC1=CCCCC1)c1c(O)nc2sccn2c1=O | inconclusive: 9.28 µM [inhibitor, single point]
Cc1ccc(C)c(Cn2c3ccccc3c3cnn(CC(=O)NCCCN4CCCCC4)c(=O)c32)c1 | inactive
Cc1ccc(N(C(=O)c2snc(C(N)=O)c2N)C(C(=O)NCC2CCCO2)c2ccc3ncccc3c2)cc1 (stereo not drawn) | inactive
Cc1ccc(S(=O)(=O)N(CC(=O)Nc2ccc(Cl)c([N+](=O)[O-])c2)C2CCCCC2)cc1 | inconclusive: 1.65 µM [inhibitor, partial curve]
CCOc1ccc(C(C)=O)cc1N1C(=O)C2C3C=CC(C3=C(C)C)C2C1=O (stereo not drawn) | inconclusive: 18.5 µM [inhibitor, single point]
Oc1ccc(-c2nnc(Nc3ccccc3)c3ccccc23)cc1 | inconclusive: 11.7 µM [inhibitor, single point]
CCCCNC(=O)C1Cc2cc(S(=O)(=O)N3CCCCC3)ccc2N1C(C)=O (stereo not drawn) | inconclusive: 10.4 µM [inhibitor, partial curve]
CCN(c1ccccc1)S(=O)(=O)c1ccc2c(c1)N(C(C)=O)CCO2 | inconclusive: 18.5 µM [inhibitor, single point]
COCc1cc(=O)[nH]c(N2CCN(Cc3ccc4c(c3)OCO4)CC2)n1 | inactive
Cc1cc(C)cc(N2C(=O)c3nccnc3C2=O)c1 | active: 11.7 µM
O=C(NCCC1=CCCCC1)C1CCC(CNc2c(N3CCCCC3)c(=O)c2=O)CC1 (stereo not drawn) | inconclusive: 11.7 µM [inhibitor, single point]
Cc1cccc2c1CC(C)(C)NC2=C(C#N)C#N | inconclusive: 4.15 µM [inhibitor, full curve, poor fit]
COc1c(Br)cc(Br)cc1C(=O)Nc1ccccc1N1CCCC1 | inactive
c1cc2c(cc1Nc1nc(-c3ccc4c(c3)OCO4)cs1)OCCO2 | inactive
O=C(N/N=C/c1cccc(Br)c1)C1CC(=O)N(c2ccccc2)C1 (stereo not drawn) | inactive
Cc1ccc2[nH]cc(CCNC(=O)/C=C/c3ccco3)c2c1 | inconclusive: 7.38 µM [inhibitor, partial curve, poor fit]
CCc1c(O)nc(SCC(=O)Nc2nc3ccccc3s2)n(C2CCCCC2)c1=O | inactive

Not a retest: five of the compounds above.
SMILES | Potency
Cc1cccc2c1CC(C)(C)NC2=C(C#N)C#N | inconclusive: 4.15 µM [inhibitor, full curve, poor fit]
COc1c(Br)cc(Br)cc1C(=O)Nc1ccccc1N1CCCC1 | inactive
c1cc2c(cc1Nc1nc(-c3ccc4c(c3)OCO4)cs1)OCCO2 | inactive
O=C(N/N=C/c1cccc(Br)c1)C1CC(=O)N(c2ccccc2)C1 (stereo not drawn) | inactive
Cc1ccc2[nH]cc(CCNC(=O)/C=C/c3ccco3)c2c1 | inconclusive: 7.38 µM [inhibitor, partial curve, poor fit]

Remaining list, next part.

SMILES | Potency
CC1CC(C)CN(C(=O)CSc2nnc(CSc3ncccn3)n2C)C1 (stereo not drawn) | inconclusive: 11.7 µM [inhibitor, single point]
COc1ccc([N+](=O)[O-])c(OC)c1C(=O)NC(=O)Nc1nc(C)nc(C)n1 | inactive
Cc1nnc(SCCn2c(N3CCCC(C)C3)nc3c2c(=O)[nH]c(=O)n3C)s1 (stereo not drawn) | inconclusive: 10.4 µM [inhibitor, partial curve, poor fit]
NS(=O)(=O)c1ccc(NS(=O)(=O)c2ccc(NC(=S)Nc3ccccc3)cc2)cc1 | inactive
Cc1ccccc1NC(=S)N(CCCN1CCCCC1)Cc1ccco1 | inactive
O=C(Nc1ccccc1)c1cc(-c2ccccc2Cl)no1 | inactive
CCOC(=O)c1cc(C#N)c(Oc2ccccc2)nc1-c1ccccc1 | inconclusive: 5.86 µM [inhibitor, partial curve, poor fit]
CC(Cc1cccs1)NC(=O)Nc1ccccc1 (stereo not drawn) | active: 2.94 µM
O/N=C1\CCCc2ccc(Cl)cc21 | inactive
CCOC(=O)C1=C(C)N(CC(C)C)C(=O)C1 | inactive
O=S(=O)(c1cccc(S(=O)(=O)N2CCOCC2)c1)N1CCCCCC1 | inconclusive: 10.4 µM [inhibitor, single point]
COc1ccc(C(CNC(=O)c2nn(-c3ccccc3)c(=O)c3ccccc23)N2CCOCC2)cc1 (stereo not drawn) | active: 10.4 µM
CN(C)c1ccc(/C=N/Nc2nc3ccccc3o2)cc1 | inactive
CCN(CC)S(=O)(=O)c1ccc(N2CCCCC2)c(C(=O)Nc2ccccc2N2CCOCC2)c1 | active: 4.15 µM
CC(C)C[C@@H](NC(=O)C1CCC(CNC(=O)[C@@H]2CCCN2C(=O)OC(C)(C)C)CC1)C(=O)O (stereo partly drawn) | inactive
COc1ccc(NC(=O)/C=C/c2ccc(OC(F)F)cc2)cn1 | inconclusive: 3.7 µM [inhibitor, full curve]
CCCCOCCCNC(=O)c1ccc2c(c1)OCO2 | inactive
c1n[nH]c(SCCCCSc2ncn[nH]2)n1 | inactive
CCOc1cc(CNCC2CCCN2CC)cc(Cl)c1OC (stereo not drawn) | inconclusive: 0.37 µM [inhibitor, full curve, poor fit]
COc1ccc(C(CNC(=O)COc2ccc(F)cc2Cl)N2CCOCC2)cc1 (stereo not drawn) | inconclusive: 0.294 µM [inhibitor, full curve, poor fit]
COc1ccc([C@H]2CC(=O)C=C(c3cccc(Cl)c3)C2)cc1 | inconclusive: 4.15 µM [inhibitor, single point]
CCOCCCNC(=O)c1c(-c2ccccc2)noc1C | inconclusive: 8.28 µM [inhibitor, partial curve]
CN(C1CCCCC1)S(=O)(=O)c1ccc(C(=O)Nc2sc3c(c2C(N)=O)CC(C)(C)NC3(C)C)cc1 | inconclusive: 3.7 µM [inhibitor, single point]
O=C(CC(O)(c1ccccc1)C(F)(F)C(F)F)c1cccs1 (stereo not drawn) | inactive
Cc1ccc(-n2ncc3c(SCC(=O)Nc4cc(C)on4)ncnc32)c(C)c1 | inconclusive: 3.29 µM [inhibitor, partial curve, poor fit]

In the list so far, two have a cyano group.
SMILES | Potency
Cc1cccc2c1CC(C)(C)NC2=C(C#N)C#N | inconclusive: 4.15 µM [inhibitor, full curve, poor fit]
CCOC(=O)c1cc(C#N)c(Oc2ccccc2)nc1-c1ccccc1 | inconclusive: 5.86 µM [inhibitor, partial curve, poor fit]

Additional records

SMILES | Potency
Cc1nc2ccc(NC(=O)c3ccc(S(=O)(=O)N(C)C)cc3)cc2s1 | inconclusive: 7.38 µM [inhibitor, partial curve, poor fit]
CC1CN(C(=O)c2ccccc2OCc2ccccc2Cl)CC(C)O1 (stereo not drawn) | inconclusive: 1.47 µM [inhibitor, single point]
CSCCC(NC(=O)c1cccc([N+](=O)[O-])c1)C(=O)OCC(=O)N1CCCC1=O (stereo not drawn) | inactive
Cc1ccc(CN2CCc3[nH]c(=O)[nH]c(=O)c3C2)cc1 | active: 1.17 µM
CCOc1ccc(C2CC(=O)NC(SC)=C2C#N)cc1 (stereo not drawn) | inactive
C=C1CCC[C@]2(C)C[C@H]3OC(=O)C(CN(C)CC(OC)OC)[C@H]3CC12 (stereo partly drawn) | inconclusive: 18.5 µM [inhibitor, single point]
CCCSc1ccc(C(=O)Nc2ccc(F)cc2F)cn1 | inactive
Cc1ccc(N2C(=O)C3CCCN3C2=S)cc1Cl (stereo not drawn) | inactive
COc1ccc(-c2csc3ncnc(N4CCN(c5ccc(OC)cc5)CC4)c23)cc1 | active: 13.1 µM
CC(Cl)C(=O)c1ccc2c(c1)CCN2C(=O)C1CC1 (stereo not drawn) | inconclusive: 18.5 µM [inhibitor, single point]
COCCNC(=O)CN(Cc1ccco1)C(=O)CCC(=O)Nc1nccs1 | inconclusive: 10.4 µM [inhibitor, partial curve, poor fit]
CCOC(=O)C1=C(N)N(c2cc(S(=O)(=O)N3CCOCC3)ccc2Cl)C(=O)C1 | inconclusive: 13.1 µM [inhibitor, single point]
COc1cc2c(cc1NC(=O)CC1SC(N3CCCC3)=NC1=O)oc1ccccc12 (stereo not drawn) | active: 1.17 µM
COc1ccc(NC2CCCN(C(=O)c3cccc(C)n3)C2)cc1OC (stereo not drawn) | inconclusive: 18.5 µM [inhibitor, partial curve, poor fit]
CC(C)CN(CCCNC(=O)CN1C(=O)COc2ccc(S(=O)(=O)N3CCC(C)CC3)cc21)CC(C)C | inconclusive: 18.5 µM [inhibitor, single point]
N/C(=N\NC(=O)c1sccc1OCc1ccc(Cl)cc1Cl)c1ccccn1 | inconclusive: 2.62 µM [inhibitor, full curve, poor fit]
Cc1ccc(NC(=O)CN2CCN(Cc3ccccc3)CC2)c(Br)c1 | inconclusive: 18.5 µM [inhibitor, single point]
CCOc1ccccc1-n1c(SCC(=O)NC(C)(C)C)nnc1-c1ccoc1C | inconclusive: 2.94 µM [inhibitor, partial curve, poor fit]
CC(Oc1cccc(Cl)c1)C(=O)NCCCCc1ccccc1 (stereo not drawn) | inconclusive: 18.5 µM [inhibitor, single point]
C/C(=N/NC(=O)c1ccc2nc[nH]c2c1)c1cccs1 | inactive
Cc1ccc(NS(=O)(=O)c2cccc(C(=O)N3CCCCCC3)c2)cc1 | inactive
Brc1ccc2c(c1)C(C1=NCCN1)c1ccccc1CS2 (stereo not drawn) | inconclusive: 9.28 µM [inhibitor, partial curve, poor fit]
O=c1c2c3c(sc2nc2n1CCCCC2)C(O)CCC3 (stereo not drawn) | inconclusive: 10.4 µM [inhibitor, partial curve, poor fit]
